This is a selection; strong and weak results do not stand in their true shares. At the low end of the ranking the order means little.

In one assay the target is T1, FEV (UniProt Q99581).
T1 sequence: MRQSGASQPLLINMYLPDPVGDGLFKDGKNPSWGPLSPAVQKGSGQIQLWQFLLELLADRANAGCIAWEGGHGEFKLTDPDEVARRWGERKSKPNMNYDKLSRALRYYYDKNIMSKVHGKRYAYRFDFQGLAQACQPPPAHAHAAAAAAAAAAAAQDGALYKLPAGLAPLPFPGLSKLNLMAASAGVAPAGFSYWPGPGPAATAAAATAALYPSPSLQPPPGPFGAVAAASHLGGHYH
Briefly: DAPPL (digital affinity profiling via proximity ligation, sequencing). Conditions: 10 mM Tris-HCl pH 7.5, 50 mM NaCl, 1 mM DTT, 4% glycerol, room temperature, 30 min; GST-TFs on glutathione beads, 16-mer random dsDNA library, 0.1% …; high values mean tight binding; double strand, one strand shown; scale: fold enrichment (6-mer frequency, TF over GST control).
Regarding AGAACT, the binding signal worked out at 0.916.
On the same count and under the same terms, to TCTAGA belongs 0.976; to CGGTTT, 1.44.
Still for that read-out and setting: with CCCCAA the figure was 1.16.
TGGATC came in with a binding signal of 0.931.
Same read-out and setting: with GGGATT the figure was 0.83; with ACTGAT, 1.19.
Still for that read-out and setting: to TTTTAT belongs 1.32.
Still for that read-out and setting: to ATAAAA belongs 1.15; to AGCTGC, 1.15; to TTGGTA, 1.17.
In the case of CAAGAA, the binding signal turned out to be 0.991.
In turn, AAATCA registered a binding signal of 1.2.
Same read-out and setting: with GTTATA the figure was 0.972.
For CCCTTC, the binding signal was found to be 1.47.
Same read-out and setting: to AGAAGA belongs 0.837; to CTTAAA, 1.21.
Still for that read-out and setting: with TTCCTA the figure was 1.62.
Same read-out and setting: to CCAGAA belongs 0.949; to GTTTAG, 0.793; to ATTACT, 1.27.
GGATCT yielded a binding signal of 0.957.
Consider CCAGCT, for which the binding signal is 0.971.
For GGATTC, the binding signal was found to be 0.923.
As to TTTTCG, the binding signal was determined as 1.23.
ATCAAC returned a binding signal of 1.13.
AGGTTT came in with a binding signal of 0.92.
Sequence TTTCCA showed a binding signal of 1.34.
On the same count and under the same terms, with CTGCAT the figure was 1.54.
Same read-out and setting: to TTCCGA belongs 1.81; to TGATAC, 1.21; to CCGCTC, 1.61.
As for TCCAAA, the binding signal was determined as 1.18.
Same read-out and setting: to AATCCG belongs 2.44; to TCTTTT, 1.44.
The same measure, in the same setting: with CGTTTT the figure was 1.19.
For the sequence AGTCTT, the binding signal was determined as 0.883.
On the same count and under the same terms, with CACTAT the figure was 1.21; with AGAATC, 0.912.

A further assay has as its target T2, ELF5 (UniProt Q9UKW6-2).
T2 sequence: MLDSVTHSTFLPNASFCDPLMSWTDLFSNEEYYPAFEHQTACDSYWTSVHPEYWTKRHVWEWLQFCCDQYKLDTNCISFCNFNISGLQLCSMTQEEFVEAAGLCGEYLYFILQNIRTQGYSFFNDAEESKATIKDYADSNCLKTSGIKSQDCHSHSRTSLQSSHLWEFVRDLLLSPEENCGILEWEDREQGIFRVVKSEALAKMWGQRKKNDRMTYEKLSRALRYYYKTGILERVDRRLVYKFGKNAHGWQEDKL
Described as above. As to conditions: 10 mM Tris-HCl pH 7.5, 50 mM NaCl, 1 mM DTT, 4% glycerol, room temperature, 30 min; GST-TFs on glutathione beads, 16-mer random dsDNA library, 0.1% …; high values mean tight binding; double strand, one strand shown; scale: fold enrichment (6-mer frequency, TF over GST control).
With AGAACT, the binding signal came to 0.946.
Still for that read-out and setting: to TCTAGA belongs 0.929; to TGGATC, 0.927.
On the same count and under the same terms, with GGGATT the figure was 0.852.
Same read-out and setting: to ACTGAT belongs 1.22; to TTTTAT, 1.3; to CAAGAA, 1.08.
The sequence GTTATA registered a binding signal of 0.96.
Same read-out and setting: with AGAAGA the figure was 0.866.
Still for that read-out and setting: to CTTAAA belongs 1.16; to TTCCTA, 2.04; to CCAGAA, 0.968.
Same read-out and setting: to GTTTAG belongs 0.798; to CCAGCT, 0.924; to GGATTC, 0.909.
For AGGTTT, the binding signal was determined as 1.04.
On the same count and under the same terms, with CTGCAT the figure was 1.29.
TCCAAA: the binding signal stood at 1.15.
Still for that read-out and setting: with AGAATC the figure was 0.946.
